Measurements as given in PubChem BioAssay (EPA / NIEHS).
The shares of active, inactive and inconclusive entries below differ from those in the screen. Where the call is inconclusive, the potency comes from a doubtful curve fit. Calls of active or inactive are those of the source. The calls were made as follows: active = hit-call score of the fitted dose curve at least 0.9, where 1 is the maximum; inconclusive = response in the unintended direction; inactive = score below 0.9.

Read-out: HMG-CoA synthase (HMGCS2), HMGCS2 (gene 3158)
Test: CLD_HMGCS2_48hr: CellzDirect (CLD) Gene Expression Assay for HMG-CoA synthase (HMGCS2) at 48 hours (AID 2283711)
Procedure: CLD_48hr is a cell-based, multiplexed-readout assay that uses hepatocyte, a human liver primary cell, with measurements taken at 48 hours after chemical dosing in a 96-well plate.CLD_HMGCS2_48hr is one of 16 assay component(s) measured or calculated from the CLD_48hr assay. It is designed to make measurements of mRNA induction, a form of inducible reporter, as detected with chemiluminescence signals by Quantitative Nuclease Protection Assay (qNPA) technology.Data from the assay component CLD_HMGCS2_48hr was analyzed at the endpoint, CLD_HMGCS2_48hr, in the positive analysis fitting direction relative to DMSO as the negative control and baseline of activity. Using a type of inducible reporter, gain-of-signal activity can be used to understand changes in the reporter gene as they relate to the gene HMGCS2. Furthermore, this assay endpoint can be referred to as a primary readout. To generalize the intended target to other relatable targets, this assay endpoint is annotated to the lyase intended target family, where subfamily is HMG-CoA synthase.
Human hepatocyte cultures were treated daily for two consecutive days with fresh dosing solutions containing appropriate concentrations of the 320 ToxCast chemicals (chemical identities were blinded to CellzDirect and other ToxCast collaborators), vehicle control (0.2% DMSO), and positive control inducers as summarized in Table 1. Due to the large number of treatment groups and chemicals examined, the ToxCast chemicals were divided into two groups (spanning two independent cultures of hepatocytes from separate donor preparations (Hu778: ToxCast plates 1 and 2; Hu776: ToxCast plates 3 and 4). Each preparation of human hepatocyte cultures was treated with respective vehicle control, medium only control, set of six positive controls/reference chemicals for the five hepatic receptor pathways, and a subset of eight of the ToxCast chemicals (indoxacarb, pyrithiobac-sodium, norflurazon, cyhalofop-butyl, methomyl, thiram, acetochlor, and propiconazole). These replicate data, coupled with internal replicates designed within the blinded ToxCast chemical library, provided additional data to evaluate interindividual differences between hepatocyte preparations and their potential impact on chemical profiles.Cell morphology and integrity were evaluated using phase-contrast microscopy as an indicator of hepatocyte cell health (Tyson & Green, 1987). Cultures for each treatment group (i.e., media, vehicle [0.2% DMSO], positive control inducers [multiple concentrations], and the ToxCast chemicals [multiple concentrations]) were observed and cell morphology was assessed relative to vehicle control cultures at each harvest time point (0, 6, 24, or 48 h). […] Images were evaluated at the conclusion of the study to assess changes in cell integrity and account for the effects of chemical exposure on uncharacteristic changes in concentration-dependent gene expression profiles. The results from these determinations of apparent cytotoxicity were annotated (yes/no) alongside the corresponding qNPA data for reference.At the conclusion of each treatment period, hepatocyte cultures (96-well) were washed with 1 volume of HBSS, lysed by addition of 25 ul ArrayPlate lysis buffer (HTG, Tucson, AZ), and 70 ul/well of Denaturation Oil, denatured by incubation at 95C for 10 min, and frozen at approximately -70C until analysis by nuclease protection assay (qNPA) (Roberts et al., 2007). For qNPA analysis, cell lysates were thawed at 50C for approximately 30 min, qNPA probes were added, and samples were incubated at 95C for 10 min to begin the detection process by denaturing the target RNA, dissociating the duplexes and secondary structure hybridization. At the conclusion of the hybridization period, S1 nuclease reagent was added to each sample to digest all nonprotected nucleotides at 50C for 60-90 min. […]

AC50, inconclusive:
COC(=O)c1ccc(CNS(C)(=O)=O)cc1S(=O)(=O)NC(=O)Nc1nc(OC)cc(OC)n1 0.0004 µM
CCN(CC)C(=O)c1cccc(C)c1 20 µM
C=CCOC(Cn1ccnc1)c1ccc(Cl)cc1Cl (stereo unspecified) 20 µM
COC(=O)CSc1cc(N=c2sc(=O)n3n2CCCC3)c(F)cc1Cl 12.1 µM
COC(=O)c1ccc(I)cc1S(=O)(=O)NC(=O)Nc1nc(C)nc(OC)n1 33.1 µM
CCCCC(CC)CN1C(=O)C2C3C=CC(C3)C2C1=O (stereo unspecified) 0.0479 µM
CCN(Cc1c(F)cccc1Cl)c1c([N+](=O)[O-])cc(C(F)(F)F)cc1[N+](=O)[O-] 6.64 µM
CCNc1nc(N)nc(Cl)n1 20 µM
O=C(Nc1ccc([N+](=O)[O-])cc1Cl)c1cc(Cl)ccc1O 8.6 µM

outcome, inactive:
OB(O)O
CCOC(=O)C(C)Oc1ccc(Oc2nc3ccc(Cl)cc3o2)cc1 (stereo unspecified)
CCSC(=O)N(CC(C)C)CC(C)C
C#CCOC(=O)[C@@H](C)Oc1ccc(Oc2ncc(Cl)cc2F)cc1
COC(=O)c1c(Cl)nn(C)c1S(=O)(=O)NC(=O)Nc1nc(OC)cc(OC)n1
COC(=O)c1ccccc1S(=O)(=O)NC(=O)Nc1nc(OC(F)F)cc(OC(F)F)n1
CCCN(CCC)C(=O)SCC

For reference, 2 of the compounds above.
outcome, inactive:
C#CCOC(=O)[C@@H](C)Oc1ccc(Oc2ncc(Cl)cc2F)cc1
COC(=O)c1c(Cl)nn(C)c1S(=O)(=O)NC(=O)Nc1nc(OC)cc(OC)n1
